Laboratory results published in paper PMC10163288.
This is one part of the list.

B1: il2ra_site2_3nfp_sap_20_mot_HHH_b1_02226_af2_000000060_0001_38_52_H_._46479c6699afdbd8d5d5faf00326b0b9_0001_1_0001_0000100001_0000001_0_0001 (protein)
chain: SSSSDNAEEYLRAALELAKEAIEEGDEELARRHLRLVILAAEDNGDEEVLEEAERLLEEISSSSS
B2: il2ra_site2_2erj_sap_23_mot_HHH_b2_05012_af2_000000134_0001_1_19_H_._HHH_b2_03538_0001_0000400015_0000001_0_0001 (protein)
chain: SSSSSDLHRLYELANELLRLLAEGDEERFEEVLEEAERLAEKLQDDNTKEFLELLERLLKSSSSS
B3: il2ra_site2_3nfp_normal_mot_HHH_b1_05785_af2_000000002_0001_41_57_H_._HHH_b1_05540_af2_0001_0000400027_0000001_0 (protein)
chain: SSSSDEAEEYLRAALLLLELAVREGDEEQFERHLHAVRLLAESLHDEEVRERLEELEELIKSSSS
B4: il2ra_site2_3nfp_normal_mot_HHH_b2_03377_000000137_0001_25_41_H_._HHH_b1_03268_af2_0001_0000100007_0000001_0 (protein)
chain: SSSSSEERVEELLEEARELAKEGNPEEAREILREAAEIAYELRNHELFALIAEVIFLVVQLSSSS
B5: il2ra_site1_1z92_normal_mot_HHH_b1_01250_000000104_0001_1_17_H_._HHH_b2_06740_0001_0000100006_0000001_0_af2pred_0001_af2pred (protein)
chain: SSSNEEQLRKDARIIVETAVKLAGLSEEDEKILEEVAEKLVEEGFDLEEISRILDEVALELLSSS
B6: il2ra_site1_3nfp_sap_14_mot_HHH_b1_07440_af2_000000231_0001_1_19_H_._HHH_b2_02190_0001_0000300007_0000001_1_0001 (protein)
chain: SSSSSEMEEAFELVRKLWEASHNGDKELAKELAEELFELAEEINDRIALRFAEEVLKQLNSSSSS
B7: il2ra_site1_1z92_sap_11_mot_2f77cdb525a7c630ef91a614e4fe6388_0001_000000110_0001_1_12_H_._HHH_eva_0027_0001_0000200020_0000001_0_0001 (protein)
chain: SSSSDEELREVVERLVEKYNLSEDAKRALEWAVEDLEELGQDEHTAKKFLERLAEMIRKLLSSSS
B8: il2ra_site2_3nfp_normal_mot_HHH_b2_02437_000000052_0001_42_56_H_._HHH_b1_05520_0001_0000200021_0000001_0 (protein)
chain: SSSSSSDVEELIEEAKRLLEEGNPEEAQRVLAEATHLAFERRDSELFYLIAELLLELWSSSSSSS
B9: il2ra_site1_1z92_normal_mot_73a3237f21306322153cb43486d2ff88_0001_1_af2_000000006_0001_34_49_H_._66959ead3e6c57cb3ef8243f3eb758e0_0001_1_0001_0000300041_0000001 … (protein)
chain: SEAEEELRAAVAARDEAALRAFLQRLLRDTGDPELARQLLRILVKKLGLPEEVLERLLALLDELA
B10: il2ra_site1_3nfp_sap_22_mot_9895c1d898f6985d52506ef494acec2a_0001_1_af2_000000173_0001_18_31_H_._HHH_b2_07414_af2_0001_0000400009_0000001_0_0001_1 (protein)
chain: DEEEAIRHAIETAAEFARVPSWEWEIENGHVTITFKGDDEQVRHASKLIAEMLRSFGIDVEVEVE
B11: il2ra_site2_2erj_sap_20_mot_HHH_b1_06542_af2_000000257_0001_1_17_H_._HHH_b1_06625_0001_0000700039_0000001_0_0001 (protein)
chain: SSSSDESVKAAREFIEKLIEEGDLERAKAYAELAERYLRAAGDEESLRLIEELLEEVEKLLSSSS
B12: il2ra_site2_3nfp_normal_mot_HHH_b2_07498_000000057_0001_1_14_H_._HHH_b2_00986_0002_0000600024_0000001_0 (protein)
chain: SSSSDIEERVKELLEEARELLEEGDRFEAARLVVEATRLAVEGNDPELAREVLELYRLIKGSSSS
B13: il2ra_site1_1z92_sap_21_mot_35b94aac26684153dbcc4bf06a514b74_0001_1_000000068_0001_35_49_H_._HEEHE_2006_af2_0001_0000400023_0000001_0_0001_af2pred_0001_af2pred (protein)
chain: SSSSDEEEAAEEIVREVVEKLGLSEEDREALERDAEQSLRRGISERSVKQALEKAAKRERSSSSS
B14: il2ra_site2_2erj_normal_mot_677c0ffea6ecdb64f8a38b1d430a01c6_0001_af2_000000059_0001_1_15_H_._HHH_b2_08335_0001_0000100001_0000001_0 (protein)
chain: SSSSDEEVREEVERLLEEAKKIEDPHEAAAVVIEAAELAVRNDDEELLREISRIFAELYGSSSSS
B15: il2ra_site2_2erj_normal_mot_HHH_b2_02252_af2_000000112_0001_23_39_H_._HHH_b2_01517_af2_0001_0000900007_0000001_0 (protein)
chain: SSSSSDELEELLQEAKELLEEGNPEEALEAARRAAELAFKLGDHRAFAEIVELAHEIVRHSSSSS
B16: il2ra_site1_2b5i_normal_mot_HHH_b1_01419_af2_000000080_0001_42_53_H_._HHH_b1_08112_af2_0001_0000400046_0000001_0 (protein)
chain: SSSSDEAWEQVEELFLEASRLFRNGNPEEAEKVLEEALRLAEEHNDERAAKQLKEMLERLSSSSS
B17: il2ra_site2_2erj_sap_29_mot_HHH_b2_04712_af2_000000260_0001_42_56_H_._HHH_b1_03205_0001_0000100001_0000001_1_0001 (protein)
chain: SSSSDESLRALEELVEEAEEKNDKERLRLLFEFVRLQLEQLNDPRVEELLELIKKLLEELSSSSS
B18: il2ra_site1_1z92_normal_mot_54e474eed2d0515e81978198f0f96ec2_0001_000000202_0001_15_30_H_._9e622f7d73aa0ff91040b48e8c7f7504_0001_1_af2_0001_0000100005_0000001_0 … (protein)
chain: DEEEAEELLREILKEEGSEQLLERLLRRAEEEMGDPRLALLALIRVALYLTGDPRLEEALELVKK
B19: il2ra_site1_2b5i_normal_mot_HHH_b2_04910_000000118_0001_1_19_H_._HHH_b2_02427_0001_0000500041_0000001_0_af2pred_dldesign_0_af2pred (protein)
chain: SSSSSDAAKVRELALEAERLFKAGKEEEAKKVLEEALKLAEELGSTSWIKFINLALKQLESSSSS
B20: il2ra_site1_1z92_normal_mot_HHH_b2_00124_000000173_0001_1_17_H_._HHH_b2_00888_0001_0000200026_0000001_0_af2pred_0001_af2pred (protein)
chain: SSSDEEARRLEHEVAELLDEAEERGDEELLREILEEALRLAEELNDKRLVKYIRFLLRRLNSSSS
B21: il2ra_site2_3nfp_normal_mot_HHH_b1_04756_000000059_0001_41_55_H_._HHH_b1_00819_0001_0000300036_0000001_0 (protein)
chain: SSSSDEEEKRVEELLEEAEELLRRGNPEEAQRVLAEATHLVFERRNVELYAELQRLALLVYSSSS
B22: il2ra_site2_3nfp_sap_20_mot_HHH_b2_08245_000000023_0001_41_55_H_._HHH_b1_00950_0001_0000400017_0000001_1_0001 (protein)
chain: SSSSKAEEYLRVALELLKQLKEQGSEEAARRVARAALAAAEDQNDEELFEEIREILEELESSSSS
B23: il2ra_site2_3nfp_sap_18_mot_HHH_b2_04004_af2_000000015_0001_21_38_H_._HHH_b2_01619_0001_0000500030_0000001_0_0001 (protein)
chain: SSSSSEEVEEAEELAEEVLKILKERGDERAFKYVEAVLRLLREFQDPRLAKKLREMAETVSSSSS
B24: il2ra_site1_3nfp_normal_mot_305f2cde7908e03ad37cbc015c4ad608_0001_000000190_0001_1_13_H_._051c0c936a156ad947a69d9f7fa35b99_0001_0001_0000200005_0000001_1_af2pre … (protein)
chain: SALEEILEEARERGDEEVVRVAELLLEAERTRDPELSREALKLVARLLLKGNPLARELAKLMQNH
B25: il2ra_site2_2erj_sap_26_mot_HHH_b1_06697_000000025_0001_41_54_H_._HHH_b2_06359_0001_0000700009_0000001_0_0001 (protein)
chain: SSSSSDEVAELLARALEAAKEGDEEKAKELVERAREVAEELGSPFLERYVEFAREDIERYFSSSS
B26: il2ra_site1_3nfp_sap_13_mot_HHH_b1_07204_af2_000000238_0001_41_55_H_._HHH_b1_08000_0001_0000400027_0000001_0_0001 (protein)
chain: SSSSSEEEERVEELLEEAERLVREGDWEEARKVFEEAMRVAAKAANDELDRLILEWLQELSSSSS
B27: il2ra_site2_2erj_normal_mot_HHH_b2_08364_000000146_0001_1_19_H_._HEEHE_1265_af2_0001_0000100004_0000001_1_af2pred_0001_1_af2pred_swapped (protein)
chain: SDETLVEVNIEAAARLAGIPSIEVEVSNGTIEVTIDGNDEAARYVEELARHVAEQFGLEVEVEVE
B28: il2ra_site1_1z92_sap_19_mot_ac4c3ba4b0f318db3a21ad0f1c8264ff_0001_af2_000000096_0001_18_32_H_._57f16503c3ed7559aa135d11549c9b80_0001_0001_0000100003_0000001_0_0 … (protein)
chain: SVLEILERLAEEKNDPRIRQVFYALEQLTRLTGDPELAIKNLELALRRLGDPELLRILEEAEELT
B29: il2ra_site2_3nfp_normal_mot_HHH_b2_06897_000000042_0001_40_57_H_._HHH_b1_06060_af2_0001_0000200014_0000001_1 (protein)
chain: SSSSSEEVKELLEELEELLKKNDEEQFRELVRRISNIVYELNDHEAFAILNRLVEEFRKRQSSSS
B30: il2ra_site1_3nfp_normal_mot_HHH_b1_03014_af2_000000204_0001_43_57_H_._HHH_b1_07134_0001_0000500012_0000001_1_af2pred_0001_af2pred_1_swapped (protein)
chain: SSSSDRAERFLEMLVKLLKSLLELGNEKAFERVFRSAESAAERANDPEILEELRELYREFNSSSS
B31: il2ra_site1_2b5i_normal_mot_HHH_b2_04910_000000118_0001_1_19_H_._HHH_b2_03843_0001_0000200013_0000001_0 (protein)
chain: SSSSSESSRRAQELFHEADRLDREGNPEEARKILEEAEEVAEEGNNRSLLRSIRAALRQASSSSS
B32: il2ra_site1_1z92_normal_mot_HHH_b2_04375_000000267_0001_42_56_H_._698813b5b2907ad46adb08327c7f7b71_0001_0001_0000100012_0000001_0 (protein)
chain: DVERDLRAVRKLGVPPENVLKAVLQALEVLLGDPEQAKEVLREVLEELLGDPEEAERLVEEAEKR
B33: il2ra_site2_2erj_sap_27_mot_HHH_b1_00004_000000238_0001_1_17_H_._HHH_b1_07428_0001_0000600005_0000001_0_0001 (protein)
chain: SSSSDTEEEAEKLFERLEELLEEGDEQAVNEVLTKLVRLAKEKDDPEAARLVWEIMRKNDSSSSS
B34: il2ra_site2_3nfp_sap_20_mot_HHH_b1_02962_000000041_0001_43_56_H_._HHH_b1_06420_0001_0000200007_0000001_0_0001 (protein)
chain: SVEEAIEEILERLGDPLVRLLLELLEELKERGTLTPERERALLYLAIALELGNPLAEKAVEDARS
B35: il2ra_site2_3nfp_sap_19_mot_HHH_b2_04619_000000299_0001_40_56_H_._ems_3hM_285_0001_0000300025_0000001_0_0001_af2pred_0001_1_af2pred_swapped (protein)
chain: SSSSSSDTRERVEELLEEAEQIDDPEEVDRLLLKAIYLAARAGDEEAIKLVEEVLKELSSSSSSS
B36: il2ra_site1_1z92_normal_mot_HHH_b1_00893_000000159_0001_19_35_H_._43152d1d296b358565056a4a32fd9b81_0001_1_af2_0001_0000300029_0000001_0_af2pred_0001_af2pred_1_s … (protein)
chain: DDEELEEKLKEAAENRDVEKLEELLRELLELLGDPAVKFLLEFFERLLKRDEEDAVKNVLRFVSF
B37: il2ra_site1_3nfp_normal_mot_HHH_b2_02066_af2_000000034_0001_1_16_H_._ae2d1c0b5552e85e62693402b9c72bf7_0001_0001_0000300041_0000001_0_af2pred_0001_af2pred (protein)
chain: DSALKYAIRAALEDNDEKALEDILETLEKLLGDPEEAKRVLRELIEELLGDPEQAEEIVREIEER

Target: il2ra, P01589
Assay: yeast display titration

Apparent Kd, inactive:
B1 no binding seen
B2 no binding seen
B3 no binding seen
B4 no binding seen
B5 no binding seen
B6 no binding seen
B7 no binding seen
B8 no binding seen
B9 no binding seen
B10 no binding seen
B11 no binding seen
B12 no binding seen
B13 no binding seen
B14 no binding seen
B15 no binding seen
B16 no binding seen
B17 no binding seen
B18 > 1.46 µM
B19 no binding seen
B20 no binding seen
B21 no binding seen
B22 no binding seen
B23 no binding seen
B24 no binding seen
B25 no binding seen
B26 no binding seen
B27 no binding seen
B28 no binding seen
B29 no binding seen
B30 no binding seen
B31 no binding seen
B32 no binding seen
B33 no binding seen
B34 no binding seen
B35 no binding seen
B36 > 2.78 µM
B37 no binding seen

Already shown: an excerpt of the list.
Apparent Kd, inactive:
B6 no binding seen
B7 no binding seen
